Measured values from patent US4990430A, “Process for retouching dye images” (Eastman Kodak Company, priority 1989, dated 1991).

How the values were obtained:
[1] = Maximum density (Dmax) of the magenta dye image after E-6 processing of the coated element; conditions: Table II; coupler at 1.62 mmol/sq m, processed by Kodak E-6 process
[2] = Washout of the magenta dye image on immersion in aqueous acidic ethanol; conditions: Table II; stirred solution of 3 ml 12N HCl, 32 ml H2O and 65 ml ethanol for 3 minutes

Row | SMILES | Dmax [1] | Percent Washout [2] [%]
1 | Cc1cc(C)c(-c2n[nH]c3c(Cl)c(C(C)(C)C)nn23)c(C)c1NC(=O)CCCCCOc1ccc(CO)cc1 [Compound 5] | 1.10 | 96
2 | CCC(C)(C)c1ccc(OCC(=O)Nc2cccc(C(=O)NC3=NN(c4c(Cl)cc(Cl)cc4Cl)C(=O)C3)c2)c(C(C)(C)CC)c1 [Compound C-2, reference compound] | 1.6 | 8
3 | CCCCCCC(Oc1ccc(S(=O)(=O)CCO)cc1)C(=O)Nc1c(C)cc(C)c(-c2n[nH]c3c(Cl)c(C(C)(C)C)nn23)c1C (centres unmarked) [Compound 6] | 1.10 | 48
4 | CCCS(=O)(=O)NCCS(=O)(=O)CCCCCCCCCCC(=O)Nc1c(C)cc(C)c(-c2n[nH]c3c(Cl)c(C(C)(C)C)nn23)c1C [Compound 2] | 1.74 | 86
5 | CCOP(=O)(NCCS(=O)(=O)CCCCCCCCCCC(=O)Nc1c(C)cc(C)c(-c2n[nH]c3c(Cl)c(C(C)(C)C)nn23)c1C)OCC [Compound 3] | 1.06 | 94
6 | CCCCCCCCC(C(=O)Nc1c(C)cc(C)c(-c2n[nH]c3c(Cl)c(C(C)(C)C)nn23)c1C)S(=O)(=O)CCNC(=O)CC (centres unmarked) [Compound 7] | 0.9 | 81
7 | CCOP(=O)(NCCCCCCCCCCC(=O)Nc1c(C)cc(C)c(-c2n[nH]c3c(Cl)c(C(C)(C)C)nn23)c1C)OCC [Compound 1] | 0.83 | 54
8 | CCCCCCCCCCC(Oc1ccc(S(=O)(=O)c2ccc(OCc3ccccc3)cc2)cc1)C(=O)Nc1c(C)cc(C)c(-c2n[nH]c3c(Cl)c(C)nn23)c1C (centres unmarked) [Compound C-1, reference compound] | 0.7 | 3
9 | Cc1cc(C)c([N+](=O)[O-])c(C)c1-c1n[nH]c2c(Cl)c(C(C)(C)C)nn12 [Compound C-3, reference compound] | 0.5 | 98
10 | Cc1cc(C)c(-c2n[nH]c3c(Cl)c(C(C)(C)C)nn23)c(C)c1NC(=O)CCCCCCCCCCNC(=O)C(C)(CO)CO [Compound 4] | 1.35 | 89
